These are yes or no findings as the source states them, for the method shown. Binding seen in cells or lysates may run through a third protein. Some entries that bind do so weakly or less than the wild type.
Assays:
[1] = target: XPA (human (endogenous in GMU6 skin fibroblasts)) (UniProt P23025); test: co-IP; XPA-IP of whole cell extracts of GM skin fibroblasts, control and UV-irradiated; PARP1 detected by immunoblot
[2] = target: XPA (human (endogenous in GMU6 skin fibroblasts)) (UniProt P23025); test: co-IP; XPA-IP (IgG mock IP as control) of the chromatin-bound (Ch) protein fraction of GMU6 cells, control and globally irradiated with 30 J/m^2 UVC, fractionated after 10 min; PARP1 and XPA detected by immunoblot
[3] = target: XPA (human (endogenous in GMU6 skin fibroblasts)) (UniProt P23025); test: condition: only in the nucleoplasmic fraction (control and UV-irradiated cells); co-IP; XPA-IP (IgG mock IP as control) of the nucleoplasmic (Np) fraction of GMU6 cells, control and globally irradiated with 30 J/m^2 UVC, fractionated after 10 min; PARP1 and XPA detected by immunoblot

Sequences of proteins named here, by UniProt entry; tags and fusion partners are left off.
UniProt P23025: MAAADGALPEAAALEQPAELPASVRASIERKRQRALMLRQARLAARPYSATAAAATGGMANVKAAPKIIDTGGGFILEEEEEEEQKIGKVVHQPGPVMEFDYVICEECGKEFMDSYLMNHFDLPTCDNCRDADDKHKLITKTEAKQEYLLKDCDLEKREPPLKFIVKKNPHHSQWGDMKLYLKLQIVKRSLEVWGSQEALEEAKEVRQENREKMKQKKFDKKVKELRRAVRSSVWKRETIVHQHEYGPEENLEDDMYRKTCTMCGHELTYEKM
UniProt P09874: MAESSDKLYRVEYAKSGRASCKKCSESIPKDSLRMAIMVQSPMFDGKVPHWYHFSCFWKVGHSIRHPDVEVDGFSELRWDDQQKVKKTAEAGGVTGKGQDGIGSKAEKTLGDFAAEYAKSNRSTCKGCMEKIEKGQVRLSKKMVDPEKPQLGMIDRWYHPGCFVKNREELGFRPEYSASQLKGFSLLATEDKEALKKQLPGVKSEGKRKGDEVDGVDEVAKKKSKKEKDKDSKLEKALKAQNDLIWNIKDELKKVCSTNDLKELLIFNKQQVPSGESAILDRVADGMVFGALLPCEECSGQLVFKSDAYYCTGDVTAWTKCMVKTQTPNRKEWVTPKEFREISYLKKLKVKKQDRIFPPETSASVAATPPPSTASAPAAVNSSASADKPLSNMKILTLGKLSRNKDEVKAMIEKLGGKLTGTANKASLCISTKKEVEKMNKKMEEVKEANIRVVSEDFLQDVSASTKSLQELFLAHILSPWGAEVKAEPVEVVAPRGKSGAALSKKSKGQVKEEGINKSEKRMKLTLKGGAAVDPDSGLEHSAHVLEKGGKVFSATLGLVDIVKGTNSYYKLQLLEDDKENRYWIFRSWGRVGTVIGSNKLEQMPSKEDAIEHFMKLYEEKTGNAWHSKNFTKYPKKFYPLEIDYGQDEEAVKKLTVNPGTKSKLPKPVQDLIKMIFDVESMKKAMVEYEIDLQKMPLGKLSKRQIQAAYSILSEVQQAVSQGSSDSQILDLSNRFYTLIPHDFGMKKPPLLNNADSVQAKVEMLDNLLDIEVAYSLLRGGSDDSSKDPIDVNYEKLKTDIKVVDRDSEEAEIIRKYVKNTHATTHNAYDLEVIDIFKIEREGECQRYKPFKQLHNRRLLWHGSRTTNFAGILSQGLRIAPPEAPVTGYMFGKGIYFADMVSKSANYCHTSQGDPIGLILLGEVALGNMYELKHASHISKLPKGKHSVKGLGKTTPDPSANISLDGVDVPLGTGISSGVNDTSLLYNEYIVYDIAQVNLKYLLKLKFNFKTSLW

**Q.** For “poly(ADP-ribose) polymerase-1 (PARP1) (from UniProt P09874 1-1014)”, which binding [1] is on record?
**A.** binds

**Q.** What about the binding [2] of the same substance?
**A.** binds

**Q.** And the binding [3]?
**A.** no binding

Reference: PMC7705073
